{"source": "the supplement of paper PMC8728848", "binders": {"B1": {"name": "Clone646PsrP (Streptococcus pneumoniae) (protein)", "chain": "MDHHHHHHHHASENLYFQGAPAINASLNIAKSETKVYTGEGVDSVYRVPIYYKLKVTNDGSKLTFTYTVTYVNPKTNDLGNISSMRPGYSIYNSGTSTQTMLTLGSDLGKPSGVKNYITDKNGRQVLSYNTSTMTTQGSGYTWGNGAQMNGFFAKKGYGLTSSWTVPITGTDTSFTFTPYAARTDRIGINYFNGGGKVVESSTTSQSLSQSKSLSVSAS"}}, "assay_in_all_cases": "glycan array binding signal (z-score within array); higher = stronger binding", "details_in_all_cases": "glycan notation: IUPAC condensed, linker removed", "key": {"[1]": {"molecular_target": "Fuc(a1-3)[Gal3S(b1-4)]GlcNAc6S", "how_it_was_run": "(§1)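 Glycan array binding is given as a within-array Z-score, which can be read as non-binding when negative. The arrays, 3228 of them, came from the Consortium for Functional Glycomics database and were retained only where the protein sequence was available. Z-scores were averaged across arrays of the same protein sequence at different concentrations or buffers and across linkers.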"}, "[2]": {"molecular_target": "Fuc(a1-3)[GalNAc(b1-4)]GlcNAc", "how_it_was_run": "as §1"}, "[3]": {"molecular_target": "Fuc(a1-3)[GalNAc(b1-4)]GlcNAc6S", "how_it_was_run": "as §1"}, "Fuc(a1-4)GlcNAc": {"molecular_target": "Fuc(a1-4)GlcNAc", "how_it_was_run": "as §1"}, "Fuc(b1-3)GlcNAc": {"molecular_target": "Fuc(b1-3)GlcNAc", "how_it_was_run": "as §1"}, "Gal(a1-2)Gal": {"molecular_target": "Gal(a1-2)Gal", "how_it_was_run": "as §1"}, "Gal(a1-3)Gal": {"molecular_target": "Gal(a1-3)Gal", "how_it_was_run": "as §1"}, "Gal(a1-3)Gal(b1-3)GlcNAc": {"molecular_target": "Gal(a1-3)Gal(b1-3)GlcNAc", "how_it_was_run": "as §1"}, "[4]": {"molecular_target": "Gal(a1-3)Gal(b1-3)GlcNAc(b1-2)Man", "how_it_was_run": "as §1"}, "[5]": {"molecular_target": "Gal(a1-3)Gal(b1-3)GlcNAc(b1-2)Man(a1-3)[Gal(a1-3)Gal(b1-3)GlcNAc(b1-2)Man(a1-6)]Man(b1-4)GlcNAc(b1-4)GlcNAc", "how_it_was_run": "as §1"}, "[6]": {"molecular_target": "Gal(a1-3)Gal(b1-3)GlcNAc(b1-3)GalNAc", "how_it_was_run": "as §1"}, "[7]": {"molecular_target": "Gal(a1-3)Gal(b1-3)GlcNAc(b1-6)GalNAc", "how_it_was_run": "as §1"}, "[8]": {"molecular_target": "Gal(a1-3)Gal(b1-3)[Fuc(a1-4)]GlcNAc(b1-2)Man(a1-3)[Gal(a1-3)Gal(b1-3)[Fuc(a1-4)]GlcNAc(b1-2)Man(a1-6)]Man(b1-4)GlcNAc(b1-4)GlcNAc", "how_it_was_run": "as §1"}, "Gal(a1-3)Gal(b1-4)Glc": {"molecular_target": "Gal(a1-3)Gal(b1-4)Glc", "how_it_was_run": "as §1"}, "Gal(a1-3)Gal(b1-4)GlcNAc": {"molecular_target": "Gal(a1-3)Gal(b1-4)GlcNAc", "how_it_was_run": "as §1"}, "[9]": {"molecular_target": "Gal(a1-3)Gal(b1-4)GlcNAc(b1-2)Man", "how_it_was_run": "as §1"}, "[10]": {"molecular_target": "Gal(a1-3)Gal(b1-4)GlcNAc(b1-2)Man(a1-3)[Gal(a1-3)Gal(b1-4)GlcNAc(b1-2)Man(a1-6)]Man(b1-4)GlcNAc(b1-4)GlcNAc", "how_it_was_run": "as §1"}, "[11]": {"molecular_target": "Gal(a1-3)Gal(b1-4)GlcNAc(b1-3)GalNAc", "how_it_was_run": "as §1"}, "[12]": {"molecular_target": "Gal(a1-3)Gal(b1-4)GlcNAc(b1-6)GalNAc", "how_it_was_run": "as §1"}, "[13]": {"molecular_target": "Gal(a1-3)Gal(b1-4)[Fuc(a1-3)]GlcNAc", "how_it_was_run": "as §1"}, "[14]": {"molecular_target": "Gal(a1-3)Gal(b1-4)[Fuc(a1-3)]GlcNAc(b1-2)Man(a1-3)[Gal(a1-3)Gal(b1-4)[Fuc(a1-3)]GlcNAc(b1-2)Man(a1-6)]Man(b1-4)GlcNAc(b1-4)GlcNAc", "how_it_was_run": "as §1"}, "Gal(a1-3)GalNAc": {"molecular_target": "Gal(a1-3)GalNAc", "how_it_was_run": "as §1"}, "[15]": {"molecular_target": "Gal(a1-3)[Gal(a1-4)]Gal(b1-4)GlcNAc", "how_it_was_run": "as §1"}, "[16]": {"molecular_target": "Gal(a1-4)Gal(b1-3)GlcNAc(b1-2)Man(a1-3)[Gal(a1-4)Gal(b1-3)GlcNAc(b1-2)Man(a1-6)]Man(b1-4)GlcNAc(b1-4)GlcNAc", "how_it_was_run": "as §1"}, "Gal(a1-4)Gal(b1-4)Glc": {"molecular_target": "Gal(a1-4)Gal(b1-4)Glc", "how_it_was_run": "as §1"}, "Gal(a1-4)Gal(b1-4)GlcNAc": {"molecular_target": "Gal(a1-4)Gal(b1-4)GlcNAc", "how_it_was_run": "as §1"}, "[17]": {"molecular_target": "Gal(a1-4)Gal(b1-4)GlcNAc(b1-2)Man(a1-3)[Gal(a1-4)Gal(b1-4)GlcNAc(b1-2)Man(a1-6)]Man(b1-4)GlcNAc(b1-4)GlcNAc", "how_it_was_run": "as §1"}, "[18]": {"molecular_target": "Gal(a1-4)Gal(b1-4)GlcNAc(b1-3)Gal(b1-4)Glc", "how_it_was_run": "as §1"}, "Gal(a1-4)GlcNAc": {"molecular_target": "Gal(a1-4)GlcNAc", "how_it_was_run": "as §1"}, "Gal(a1-6)Glc": {"molecular_target": "Gal(a1-6)Glc", "how_it_was_run": "as §1"}, "Gal(b1-2)Gal": {"molecular_target": "Gal(b1-2)Gal", "how_it_was_run": "as §1"}, "Gal(b1-3)Gal": {"molecular_target": "Gal(b1-3)Gal", "how_it_was_run": "as §1"}, "Gal(b1-3)Gal(b1-4)GlcNAc": {"molecular_target": "Gal(b1-3)Gal(b1-4)GlcNAc", "how_it_was_run": "as §1"}, "Gal(b1-3)GalNAc": {"molecular_target": "Gal(b1-3)GalNAc", "how_it_was_run": "as §1"}, "[19]": {"molecular_target": "Gal(b1-3)GalNAc(a1-3)[Fuc(a1-2)]Gal(b1-4)Glc", "how_it_was_run": "as §1"}, "[20]": {"molecular_target": "Gal(b1-3)GalNAc(a1-3)[Fuc(a1-2)]Gal(b1-4)GlcNAc", "how_it_was_run": "as §1"}, "Gal(b1-3)GalNAc(b1-3)Gal": {"molecular_target": "Gal(b1-3)GalNAc(b1-3)Gal", "how_it_was_run": "as §1"}, "[21]": {"molecular_target": "Gal(b1-3)GalNAc(b1-3)Gal(a1-4)Gal(b1-4)Glc", "how_it_was_run": "as §1"}, "[22]": {"molecular_target": "Gal(b1-3)GalNAc(b1-4)Gal(b1-4)Glc", "how_it_was_run": "as §1"}, "[23]": {"molecular_target": "Gal(b1-3)GalNAc(b1-4)[Neu5Ac(a2-3)]Gal(b1-4)Glc", "how_it_was_run": "as §1"}, "Gal(b1-3)GlcNAc": {"molecular_target": "Gal(b1-3)GlcNAc", "how_it_was_run": "as §1"}, "[24]": {"molecular_target": "Gal(b1-3)GlcNAc(a1-3)Gal(b1-4)GlcNAc", "how_it_was_run": "as §1"}, "[25]": {"molecular_target": "Gal(b1-3)GlcNAc(a1-6)Gal(b1-4)GlcNAc", "how_it_was_run": "as §1"}, "Gal(b1-3)GlcNAc(b1-2)Man": {"molecular_target": "Gal(b1-3)GlcNAc(b1-2)Man", "how_it_was_run": "as §1"}, "[26]": {"molecular_target": "Gal(b1-3)GlcNAc(b1-2)Man(a1-3)[Gal(b1-3)GlcNAc(b1-2)Man(a1-6)]Man(b1-4)GlcNAc(b1-4)GlcNAc", "how_it_was_run": "as §1"}}, "note": "Some of the results follow.", "data": [{"binder": "B1", "values": [{"measurement": "glycan array binding signal (z-score)", "setting": "[1]", "value": -0.227}, {"measurement": "glycan array binding signal (z-score)", "setting": "[2]", "value": 0.979}, {"measurement": "glycan array binding signal (z-score)", "setting": "[3]", "value": 0.395}, {"measurement": "glycan array binding signal (z-score)", "setting": "Fuc(a1-4)GlcNAc", "value": 0.452}, {"measurement": "glycan array binding signal (z-score)", "setting": "Fuc(b1-3)GlcNAc", "value": 1.31}, {"measurement": "glycan array binding signal (z-score)", "setting": "Gal(a1-2)Gal", "value": 1.52}, {"measurement": "glycan array binding signal (z-score)", "setting": "Gal(a1-3)Gal", "value": -0.601}, {"measurement": "glycan array binding signal (z-score)", "setting": "Gal(a1-3)Gal(b1-3)GlcNAc", "value": -0.923}, {"measurement": "glycan array binding signal (z-score)", "setting": "[4]", "value": -0.341}, {"measurement": "glycan array binding signal (z-score)", "setting": "[5]", "value": 0.272}, {"measurement": "glycan array binding signal (z-score)", "setting": "[6]", "value": 1.68}, {"measurement": "glycan array binding signal (z-score)", "setting": "[7]", "value": -0.9}, {"measurement": "glycan array binding signal (z-score)", "setting": "[8]", "value": -0.373}, {"measurement": "glycan array binding signal (z-score)", "setting": "Gal(a1-3)Gal(b1-4)Glc", "value": -0.512}, {"measurement": "glycan array binding signal (z-score)", "setting": "Gal(a1-3)Gal(b1-4)GlcNAc", "value": -0.743}, {"measurement": "glycan array binding signal (z-score)", "setting": "[9]", "value": 0.696}, {"measurement": "glycan array binding signal (z-score)", "setting": "[10]", "value": -0.478}, {"measurement": "glycan array binding signal (z-score)", "setting": "[11]", "value": -0.146}, {"measurement": "glycan array binding signal (z-score)", "setting": "[12]", "value": 0.15}, {"measurement": "glycan array binding signal (z-score)", "setting": "[13]", "value": -0.546}, {"measurement": "glycan array binding signal (z-score)", "setting": "[14]", "value": 0.635}, {"measurement": "glycan array binding signal (z-score)", "setting": "Gal(a1-3)GalNAc", "value": -0.423}, {"measurement": "glycan array binding signal (z-score)", "setting": "[15]", "value": 0.128}, {"measurement": "glycan array binding signal (z-score)", "setting": "[16]", "value": 0.416}, {"measurement": "glycan array binding signal (z-score)", "setting": "Gal(a1-4)Gal(b1-4)Glc", "value": 2.13}, {"measurement": "glycan array binding signal (z-score)", "setting": "Gal(a1-4)Gal(b1-4)GlcNAc", "value": 1.08}, {"measurement": "glycan array binding signal (z-score)", "setting": "[17]", "value": -0.434}, {"measurement": "glycan array binding signal (z-score)", "setting": "[18]", "value": -0.163}, {"measurement": "glycan array binding signal (z-score)", "setting": "Gal(a1-4)GlcNAc", "value": 1.16}, {"measurement": "glycan array binding signal (z-score)", "setting": "Gal(a1-6)Glc", "value": 0.015}, {"measurement": "glycan array binding signal (z-score)", "setting": "Gal(b1-2)Gal", "value": 2.94}, {"measurement": "glycan array binding signal (z-score)", "setting": "Gal(b1-3)Gal", "value": -0.642}, {"measurement": "glycan array binding signal (z-score)", "setting": "Gal(b1-3)Gal(b1-4)GlcNAc", "value": -0.064}, {"measurement": "glycan array binding signal (z-score)", "setting": "Gal(b1-3)GalNAc", "value": -0.426}, {"measurement": "glycan array binding signal (z-score)", "setting": "[19]", "value": -0.437}, {"measurement": "glycan array binding signal (z-score)", "setting": "[20]", "value": -0.31}, {"measurement": "glycan array binding signal (z-score)", "setting": "Gal(b1-3)GalNAc(b1-3)Gal", "value": 0.765}, {"measurement": "glycan array binding signal (z-score)", "setting": "[21]", "value": 0.86}, {"measurement": "glycan array binding signal (z-score)", "setting": "[22]", "value": 1.3}, {"measurement": "glycan array binding signal (z-score)", "setting": "[23]", "value": 0.573}, {"measurement": "glycan array binding signal (z-score)", "setting": "Gal(b1-3)GlcNAc", "value": 0.245}, {"measurement": "glycan array binding signal (z-score)", "setting": "[24]", "value": -0.863}, {"measurement": "glycan array binding signal (z-score)", "setting": "[25]", "value": 0.248}, {"measurement": "glycan array binding signal (z-score)", "setting": "Gal(b1-3)GlcNAc(b1-2)Man", "value": 0.106}, {"measurement": "glycan array binding signal (z-score)", "setting": "[26]", "value": -0.535}]}]}
